# Results from article PMC5996148.
# The other results are listed elsewhere or left out. For some of these results: The source does not settle which construct or isoform was used.
# What was measured:
# Test in all cases: protein microarray (ProtoArray v5.0), streptavidin-Alexa Fluor 647
# Conditions in all cases: 3'-biotin; 20 mM Tris (pH 7.5), 5 mM MgCl2, 100 mM KCl, 0.1% Tween-20, A/T-rich and random oligonucleotide blockers; temperature not stated; high values mean tight binding
# [1] = tested on: TRIM11 (human)
# [2] = tested on: TRIM32 (human)
# [3] = tested on: TRIM44 (human)
# [4] = tested on: TRIM63 (human)
# [5] = biological target: T1, TRIM69 (UniProt Q86WT6)
# T1 sequence: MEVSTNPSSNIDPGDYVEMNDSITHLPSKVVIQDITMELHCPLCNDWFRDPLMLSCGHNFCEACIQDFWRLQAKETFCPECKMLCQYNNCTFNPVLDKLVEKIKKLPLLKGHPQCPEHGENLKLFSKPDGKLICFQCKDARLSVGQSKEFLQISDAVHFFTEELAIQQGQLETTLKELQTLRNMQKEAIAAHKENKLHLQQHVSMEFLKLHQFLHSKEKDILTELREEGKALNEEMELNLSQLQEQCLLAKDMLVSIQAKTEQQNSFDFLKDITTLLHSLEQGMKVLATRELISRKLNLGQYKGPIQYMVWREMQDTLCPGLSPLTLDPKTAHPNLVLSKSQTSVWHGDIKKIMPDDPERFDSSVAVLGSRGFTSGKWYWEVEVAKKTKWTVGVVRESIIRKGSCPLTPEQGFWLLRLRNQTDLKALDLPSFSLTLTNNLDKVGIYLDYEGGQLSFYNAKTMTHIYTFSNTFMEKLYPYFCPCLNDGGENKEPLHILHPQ
# [6] = biological target: T2, TSC22D1 (UniProt Q15714)
# T2 sequence: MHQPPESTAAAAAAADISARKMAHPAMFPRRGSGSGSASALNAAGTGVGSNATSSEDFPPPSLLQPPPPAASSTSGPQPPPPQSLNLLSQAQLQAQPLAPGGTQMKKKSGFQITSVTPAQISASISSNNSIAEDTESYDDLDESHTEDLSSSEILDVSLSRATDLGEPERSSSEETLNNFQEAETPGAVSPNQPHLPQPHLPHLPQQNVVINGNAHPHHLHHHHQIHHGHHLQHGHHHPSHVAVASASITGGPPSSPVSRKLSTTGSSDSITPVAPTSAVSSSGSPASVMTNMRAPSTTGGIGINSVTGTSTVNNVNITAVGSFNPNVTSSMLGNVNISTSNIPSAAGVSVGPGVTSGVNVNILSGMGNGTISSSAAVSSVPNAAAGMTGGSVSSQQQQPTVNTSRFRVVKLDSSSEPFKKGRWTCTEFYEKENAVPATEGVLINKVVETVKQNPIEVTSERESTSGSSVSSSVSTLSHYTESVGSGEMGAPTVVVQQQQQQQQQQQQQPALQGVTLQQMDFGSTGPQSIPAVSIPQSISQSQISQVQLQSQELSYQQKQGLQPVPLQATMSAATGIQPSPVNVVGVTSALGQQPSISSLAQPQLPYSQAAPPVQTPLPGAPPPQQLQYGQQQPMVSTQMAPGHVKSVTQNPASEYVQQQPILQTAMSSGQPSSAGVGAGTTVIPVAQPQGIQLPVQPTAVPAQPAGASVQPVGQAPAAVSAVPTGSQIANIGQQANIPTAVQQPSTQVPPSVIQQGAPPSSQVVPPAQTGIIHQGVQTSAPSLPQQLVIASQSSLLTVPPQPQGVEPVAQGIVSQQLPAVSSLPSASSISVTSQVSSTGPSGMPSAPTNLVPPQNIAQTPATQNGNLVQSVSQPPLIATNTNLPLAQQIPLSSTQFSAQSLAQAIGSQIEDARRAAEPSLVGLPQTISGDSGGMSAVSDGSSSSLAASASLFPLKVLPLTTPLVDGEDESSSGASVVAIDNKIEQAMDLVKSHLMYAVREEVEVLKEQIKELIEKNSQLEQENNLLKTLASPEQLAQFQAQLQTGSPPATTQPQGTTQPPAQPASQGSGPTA
# [7] = tested on: TSNAXIP1 (human)
# [8] = tested on: TSPAN12 (human)
# [9] = tested on: TSPAN17 (human)
# [10] = biological target: T3, TSPAN5 (UniProt P62079)
# T3 sequence: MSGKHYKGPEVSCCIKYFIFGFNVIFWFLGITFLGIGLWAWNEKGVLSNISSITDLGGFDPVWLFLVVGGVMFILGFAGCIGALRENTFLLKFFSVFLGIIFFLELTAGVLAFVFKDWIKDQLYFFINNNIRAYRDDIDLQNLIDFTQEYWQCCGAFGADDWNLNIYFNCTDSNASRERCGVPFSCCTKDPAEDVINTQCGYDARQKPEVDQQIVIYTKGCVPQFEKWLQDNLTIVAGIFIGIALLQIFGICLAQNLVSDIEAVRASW
sequence,measurement,setting,value
GGTGACAGGGGTATGGGGAGGGG [G4-2 biotinylated (Ct1)],binding signal,[1],-0.394 z-score
same,binding signal,[2],-0.37 z-score
same,binding signal,[3],-0.395 z-score
same,binding signal,[4],-0.401 z-score
same,binding signal,[5],-0.372 z-score
same,binding signal,[6],-0.373 z-score
same,binding signal,[7],-0.396 z-score
same,binding signal,[8],-0.378 z-score
same,binding signal,[9],-0.373 z-score
same,binding signal,[10],-0.373 z-score

# Two consecutive entries already listed, for reference:
sequence,measurement,setting,value
GGTGACAGGGGTATGGGGAGGGG [G4-2 biotinylated (Ct1)],binding signal,[1],-0.394 z-score
same,binding signal,[2],-0.37 z-score
